PubChem BioAssay AID1671195 – Yale University, 2021

- Assay: 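Knockdowns that increase or decrease uptake of fluorescent LDL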 (primary screen)
- Cell system: human Huh7 hepatoma cells
- Reagents: siRNA pool against human genes, 18 nM
- Time to read-out: about 2 to 2.5 days of knockdown, then 8 h LDL uptake
- Conditions: DiI-labelled LDL at 30 µg/ml for 8 h, in lipoprotein-deficient serum medium
- Detection: 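Fluorescent LDL signal imaged in cells, scaled to the plate median, robust z-score for each replicate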
- Scale: robust z-score: higher = more LDL uptake after knockdown
- Rule for the call: 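Active when two or more replicates show a robust z-score above 2 or below -2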
Shown is one part, drawn at random, of about 22,000 deposited reagents. About 1,510 of all reagents (6.9%) were called active. 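Active includes knockdowns raising or lowering LDL uptake; positive z-scores mean more uptake, negative mean less.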 Entries without a mark were called inactive.

The opening 3 records, ahead of the listing:
LOC399917 (retired record)
- robust z-score, replicate 1: 0.0462
- robust z-score, replicate 2: 0.0351
- robust z-score, replicate 3: -0.43

DNAJB12
- robust z-score, replicate 1: 0.73
- robust z-score, replicate 2: 1.19
- robust z-score, replicate 3: 1.1

FAM174C
- robust z-score, replicate 1: -1.22
- robust z-score, replicate 2: 0.963
- robust z-score, replicate 3: -0.435

The list itself, from the start:
LOC399917 (retired record)
- robust z-score, replicate 1: 0.0462
- robust z-score, replicate 2: 0.0351
- robust z-score, replicate 3: -0.43

DNAJB12
- robust z-score, replicate 1: 0.73
- robust z-score, replicate 2: 1.19
- robust z-score, replicate 3: 1.1

FAM174C
- robust z-score, replicate 1: -1.22
- robust z-score, replicate 2: 0.963
- robust z-score, replicate 3: -0.435

MFF
- robust z-score, replicate 1: -0.0547
- robust z-score, replicate 2: 0.197
- robust z-score, replicate 3: 0.446

RFLNA
- robust z-score, replicate 1: -0.888
- robust z-score, replicate 2: -1.1
- robust z-score, replicate 3: -1.29

RHOD
- robust z-score, replicate 1: 0.281
- robust z-score, replicate 2: -0.353
- robust z-score, replicate 3: 0.478

NPSR1
- robust z-score, replicate 1: 0.659
- robust z-score, replicate 2: 0.338
- robust z-score, replicate 3: 0.688

NAA15
- robust z-score, replicate 1: -0.136
- robust z-score, replicate 2: 0.0603
- robust z-score, replicate 3: -0.257

DNAH5
- robust z-score, replicate 1: -1.2
- robust z-score, replicate 2: -1.59
- robust z-score, replicate 3: -1.06

COL3A1
- robust z-score, replicate 1: -0.372
- robust z-score, replicate 2: -1.64
- robust z-score, replicate 3: -1.15

RPL13AP13
- robust z-score, replicate 1: -1.25
- robust z-score, replicate 2: -1.45
- robust z-score, replicate 3: -1.41

SIRPA
- robust z-score, replicate 1: -0.219
- robust z-score, replicate 2: 0.0736
- robust z-score, replicate 3: -0.0726

NOTCH2NLA
- robust z-score, replicate 1: 1.08
- robust z-score, replicate 2: -0.676
- robust z-score, replicate 3: 0.826

GOT1
- robust z-score, replicate 1: 1.43
- robust z-score, replicate 2: 1.83
- robust z-score, replicate 3: 1.25

LINC02213
- robust z-score, replicate 1: 0.393
- robust z-score, replicate 2: 0.555
- robust z-score, replicate 3: 0.214

ASAP3
- robust z-score, replicate 1: 0.662
- robust z-score, replicate 2: 1.83
- robust z-score, replicate 3: 2.36

LNPK
- robust z-score, replicate 1: -0.279
- robust z-score, replicate 2: -0.414
- robust z-score, replicate 3: 0.0223

PIK3AP1
- robust z-score, replicate 1: -0.0358
- robust z-score, replicate 2: 1.26
- robust z-score, replicate 3: 1.29

PRR20A
- robust z-score, replicate 1: -0.389
- robust z-score, replicate 2: -0.352
- robust z-score, replicate 3: 0.0116

UTY
- robust z-score, replicate 1: -1.25
- robust z-score, replicate 2: -0.0097
- robust z-score, replicate 3: -1.12

CCDC185
- robust z-score, replicate 1: -0.787
- robust z-score, replicate 2: -0.621
- robust z-score, replicate 3: -1.21

FAAP20
- robust z-score, replicate 1: -1.38
- robust z-score, replicate 2: -1.34
- robust z-score, replicate 3: -1.54

KRTAP5-1
- robust z-score, replicate 1: 1.1
- robust z-score, replicate 2: 0.577
- robust z-score, replicate 3: 2.99

ZC3H11C
- robust z-score, replicate 1: 0.356
- robust z-score, replicate 2: -0.196
- robust z-score, replicate 3: -0.108
